Results: patent publication US10183937B2

Test system: CFA-induced mechanical hyperalgesia
Assay: Rat CFA in vivo model
Parameters: species or system Sprague Dawley rats
Conditions: 3 mg/kg p.o.

Cc1ccc(-c2cc(OC3CCOC3)cc(C(=O)N[C@H](C)c3ccc(C)nc3)c2)nc1 (stereo partly shown)
Paw withdrawal threshold 6 hour-post drug: 565 ± 74 gf (ns) and 549 ± 42 (ns) gf

Not every entry of the source has a single result; some have several. This list holds those alone. The source may hold further records. Values given together do not match, cause unknown; some may be repeats, others may stem from another dose, organism or construct than stated.
